These are yes or no findings as the source states them, for the method shown. In cells and extracts the contact can be indirect. Binding calls can cover weak binding; strength is not graded here. For part of these data: Where a sequence is shown, tags or fusion partners need not be part of it. Blank lines part the entries; values can stand above or below the molecule they belong to.
Columns and labels:
[1] = molecular target: T1, Polo-GFP (Drosophila) (UniProt P52304); assay: co-IP; anti-GFP crosslinked to protein G Dynabeads, lysates of D-Mel2 lines stably expressing Polo-GFP or Aurora B-GFP, 1 h at 4°C; INCENP detected by immunoblotting
T1 sequence: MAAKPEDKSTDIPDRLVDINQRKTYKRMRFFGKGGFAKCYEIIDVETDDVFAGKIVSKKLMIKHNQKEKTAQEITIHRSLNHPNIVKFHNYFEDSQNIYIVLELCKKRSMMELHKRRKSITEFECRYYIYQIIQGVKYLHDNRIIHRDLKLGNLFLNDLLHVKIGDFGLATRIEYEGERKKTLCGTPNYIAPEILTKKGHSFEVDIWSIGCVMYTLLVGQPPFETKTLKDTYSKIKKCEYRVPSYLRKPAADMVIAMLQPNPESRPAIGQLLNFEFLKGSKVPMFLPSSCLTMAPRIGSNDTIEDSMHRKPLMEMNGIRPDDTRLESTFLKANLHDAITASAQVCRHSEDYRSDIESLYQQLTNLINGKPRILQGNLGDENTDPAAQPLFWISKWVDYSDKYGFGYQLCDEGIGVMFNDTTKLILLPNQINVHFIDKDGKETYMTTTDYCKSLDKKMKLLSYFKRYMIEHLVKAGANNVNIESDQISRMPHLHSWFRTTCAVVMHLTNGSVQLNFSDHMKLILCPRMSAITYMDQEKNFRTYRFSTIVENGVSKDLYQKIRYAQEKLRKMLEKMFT

[2] = molecular target: GST tagged full-length Drosophila Incenp (Drosophila); assay: pull-down; GST-INCENP mixed with in vitro translated 35S labelled proteins, then glutathione beads; bound proteins detected by SDS-PAGE; binding buffer 50 mM Tris pH 7.5, 10 mM MgCl2, 1 mM EGTA, 1 mM DTT, 0.1% Triton X-100; only the target purified
[3] = molecular target: INCENP (endogenous, Drosophila cultured cells) (Drosophila (endogenous in DMel-2)); assay: proximity ligation; Duolink PLA on fixed DMel-2 cells with pairs of primary antibodies against the two proteins

binding [1]: binds
Molecule: INCENP (endogenous, Drosophila cultured cells)

binding [2]: binds
B1: in vitro translated 35S labelled Aurora B (enzyme, UniProt Q9VKN7 1-329)
chain: MTLSRAKHANRNHLPHLLAKVPEEHQEPIKNMCLKMMSHDAYGQPYDWSPRDFEMGAHLGRGKFGRVYLARERHSHYLVAMKVMFKEELRKGCVQRQVLREIEIQSRLKHPHILRLLTWFHDESRIYLALEIASEGELFKHLRGAPNHRFDEPRSAKYTYQVANALNYCHLNNVIHRDLKPENILLTSTDDLKLADFGWSAHTPNNKRRTLCGTLDYLPPEMVDGNSYDDSVDQWCLGILCYEFVVGCPPFESNSTESTYSKIRRMEISYPSHLSKGCKELIGGLLRKESKGRITLVDVMTHYWVKAGMAERELQLQKRERGKENTARN
modifications: 35S labelled

binding [3]: binds
B2: Aurora B (endogenous, Drosophila cultured cells) (enzyme, UniProt Q9VKN7 1-329)
chain: B1 chain

— publication PMC3265468
